Experiment [1] concerns the target T1, CTCF (human (endogenous in HCT-116)) (UniProt P49711).
T1 sequence: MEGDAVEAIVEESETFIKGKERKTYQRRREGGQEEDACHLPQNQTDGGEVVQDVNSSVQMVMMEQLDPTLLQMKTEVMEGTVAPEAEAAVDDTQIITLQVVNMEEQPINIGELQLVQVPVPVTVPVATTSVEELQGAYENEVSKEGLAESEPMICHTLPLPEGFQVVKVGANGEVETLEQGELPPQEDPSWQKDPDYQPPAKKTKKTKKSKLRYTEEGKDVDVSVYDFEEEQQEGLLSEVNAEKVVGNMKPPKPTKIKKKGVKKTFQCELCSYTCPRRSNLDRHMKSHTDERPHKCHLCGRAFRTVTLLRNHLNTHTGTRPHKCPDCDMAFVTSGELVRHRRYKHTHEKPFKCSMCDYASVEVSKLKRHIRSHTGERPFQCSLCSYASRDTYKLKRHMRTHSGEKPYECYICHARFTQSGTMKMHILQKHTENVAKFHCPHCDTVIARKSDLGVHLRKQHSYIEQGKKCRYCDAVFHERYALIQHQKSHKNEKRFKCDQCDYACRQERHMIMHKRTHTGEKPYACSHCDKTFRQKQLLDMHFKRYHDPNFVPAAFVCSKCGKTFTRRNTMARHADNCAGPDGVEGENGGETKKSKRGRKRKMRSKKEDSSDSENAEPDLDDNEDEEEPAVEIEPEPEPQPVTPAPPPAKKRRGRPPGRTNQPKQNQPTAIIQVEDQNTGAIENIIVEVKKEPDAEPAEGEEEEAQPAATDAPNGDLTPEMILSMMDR
The experiment is described as follows: co-IP; 250 ug protein of HCT-116 nuclear lysate (Nuclear Complex Co-IP kit, Active Motif), pre-cleared, anti-CTCF or normal mouse IgG overnight at 4 °C, Dynabeads protein G; detection by Simple Western (WES); WT and D3/E4 cells; cells with DMSO or 10 µM BC21 for 16 h.

Sequences of proteins named here, by UniProt entry; tags and fusion partners are left off.
UniProt Q8WYP5: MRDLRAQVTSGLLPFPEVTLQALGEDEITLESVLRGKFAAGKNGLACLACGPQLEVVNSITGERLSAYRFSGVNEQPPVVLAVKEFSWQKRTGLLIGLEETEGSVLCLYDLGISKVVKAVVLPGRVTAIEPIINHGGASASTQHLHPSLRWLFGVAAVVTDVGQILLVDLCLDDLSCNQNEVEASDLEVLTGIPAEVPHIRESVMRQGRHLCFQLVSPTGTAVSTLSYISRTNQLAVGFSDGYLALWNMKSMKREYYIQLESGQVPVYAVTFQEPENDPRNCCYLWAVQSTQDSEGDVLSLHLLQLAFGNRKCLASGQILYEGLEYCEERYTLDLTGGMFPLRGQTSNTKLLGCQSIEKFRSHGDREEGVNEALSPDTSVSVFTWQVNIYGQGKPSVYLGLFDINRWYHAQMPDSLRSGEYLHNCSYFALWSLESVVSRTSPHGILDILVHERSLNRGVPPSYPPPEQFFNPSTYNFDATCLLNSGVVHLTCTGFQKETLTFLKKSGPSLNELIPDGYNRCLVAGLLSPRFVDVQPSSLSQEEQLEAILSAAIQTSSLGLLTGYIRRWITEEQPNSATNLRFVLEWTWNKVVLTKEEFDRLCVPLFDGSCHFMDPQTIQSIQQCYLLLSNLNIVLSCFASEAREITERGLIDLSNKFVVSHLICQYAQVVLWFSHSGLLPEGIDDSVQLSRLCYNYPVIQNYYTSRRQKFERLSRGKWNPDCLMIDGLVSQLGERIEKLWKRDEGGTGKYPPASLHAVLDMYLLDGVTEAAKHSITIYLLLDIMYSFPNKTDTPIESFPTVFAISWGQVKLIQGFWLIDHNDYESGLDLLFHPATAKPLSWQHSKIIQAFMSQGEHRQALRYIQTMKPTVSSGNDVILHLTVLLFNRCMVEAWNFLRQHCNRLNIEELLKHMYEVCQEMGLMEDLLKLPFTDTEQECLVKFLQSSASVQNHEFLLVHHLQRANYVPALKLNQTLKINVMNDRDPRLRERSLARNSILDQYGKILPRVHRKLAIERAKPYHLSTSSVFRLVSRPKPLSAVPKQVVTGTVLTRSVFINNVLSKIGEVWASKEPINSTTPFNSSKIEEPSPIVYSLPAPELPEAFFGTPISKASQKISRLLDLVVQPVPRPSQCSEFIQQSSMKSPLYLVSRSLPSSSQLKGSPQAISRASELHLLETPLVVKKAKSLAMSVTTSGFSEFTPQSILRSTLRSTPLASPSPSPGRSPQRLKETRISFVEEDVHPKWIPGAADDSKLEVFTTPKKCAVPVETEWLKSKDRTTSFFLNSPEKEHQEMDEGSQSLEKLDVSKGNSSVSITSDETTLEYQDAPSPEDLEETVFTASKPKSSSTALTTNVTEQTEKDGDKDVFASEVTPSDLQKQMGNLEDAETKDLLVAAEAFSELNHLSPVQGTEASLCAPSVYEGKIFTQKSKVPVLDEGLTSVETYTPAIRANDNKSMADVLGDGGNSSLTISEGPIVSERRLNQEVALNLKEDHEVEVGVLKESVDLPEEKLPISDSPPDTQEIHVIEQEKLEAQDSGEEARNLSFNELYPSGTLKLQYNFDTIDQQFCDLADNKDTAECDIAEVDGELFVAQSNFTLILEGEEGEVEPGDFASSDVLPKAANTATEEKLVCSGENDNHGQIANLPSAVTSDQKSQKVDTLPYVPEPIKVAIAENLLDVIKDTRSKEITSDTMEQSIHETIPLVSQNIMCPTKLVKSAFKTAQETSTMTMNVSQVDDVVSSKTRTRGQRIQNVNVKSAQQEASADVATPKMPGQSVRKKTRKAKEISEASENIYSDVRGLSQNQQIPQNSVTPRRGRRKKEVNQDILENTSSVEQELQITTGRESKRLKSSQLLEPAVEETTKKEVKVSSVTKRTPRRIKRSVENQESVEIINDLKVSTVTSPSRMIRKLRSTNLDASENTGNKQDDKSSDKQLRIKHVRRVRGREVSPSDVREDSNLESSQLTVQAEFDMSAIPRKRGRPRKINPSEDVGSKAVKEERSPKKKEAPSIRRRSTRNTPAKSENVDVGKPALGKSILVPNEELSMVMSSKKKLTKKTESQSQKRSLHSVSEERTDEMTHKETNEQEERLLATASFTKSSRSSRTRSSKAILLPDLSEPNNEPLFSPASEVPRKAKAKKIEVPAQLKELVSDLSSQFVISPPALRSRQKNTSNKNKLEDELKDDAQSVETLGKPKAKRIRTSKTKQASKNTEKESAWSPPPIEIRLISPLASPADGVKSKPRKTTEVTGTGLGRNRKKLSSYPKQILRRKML

Experiment [2] deals with T1, CTCF (human (endogenous in HCT-116)). The experiment is described as follows: proximity ligation; in situ proximity ligation assay (ISPLA) on HCT-116 cells fixed with 1% paraformaldehyde; mouse anti-CTCF with rabbit anti-AHCTF1 or anti-NUP133; cells with DMSO or BC21; no primary antibody as background control.

Results are given in words; binding and its absence hold for the method and conditions named. In cells and extracts the contact can be indirect. Some results given as binding are weak or reduced against the parent protein; the word gives no strength.

Binding data for 2 molecules are collected here from publication PMC8752836.

AHCTF1 (from UniProt Q8WYP5 1-2266): the binding entry in experiment [1] and in experiment [2] was “binds” in each case.

B1: NUP133 (protein, UniProt Q8WUM0 1-1156)
chain: MFPAAPSPRTPGTGSRRGPLAGLGPGSTPRTASRKGLPLGSAVSSPVLFSPVGRRSSLSSRGTPTRMFPHHSITESVNYDVKTFGSSLPVKVMEALTLAEVDDQLTINIDEGGWACLVCKEKLIIWKIALSPITKLSVCKELQLPPSDFHWSADLVALSYSSPSGEAHSTQAVAVMVATREGSIRYWPSLAGEDTYTEAFVDSGGDKTYSFLTAVQGGSFILSSSGSQLIRLIPESSGKIHQHILPQGQGMLSGIGRKVSSLFGILSPSSDLTLSSVLWDRERSSFYSLTSSNISKWELDDSSEKHAYSWDINRALKENITDAIWGSESNYEAIKEGVNIRYLDLKQNCDGLVILAAAWHSADNPCLIYYSLITIEDNGCQMSDAVTVEVTQYNPPFQSEDLILCQLTVPNFSNQTAYLYNESAVYVCSTGTGKFSLPQEKIVFNAQGDSVLGAGACGGVPIIFSRNSGLVSITSRENVSILAEDLEGSLASSVAGPNSESMIFETTTKNETIAQEDKIKLLKAAFLQYCRKDLGHAQMVVDELFSSHSDLDSDSELDRAVTQISVDLMDDYPASDPRWAESVPEEAPGFSNTSLIILHQLEDKMKAHSFLMDFIHQVGLFGRLGSFPVRGTPMATRLLLCEHAEKLSAAIVLKNHHSRLSDLVNTAILIALNKREYEIPSNLTPADVFFREVSQVDTICECLLEHEEQVLRDAPMDSIEWAEVVINVNNILKDMLQAASHYRQNRNSLYRREESLEKEPEYVPWTATSGPGGIRTVIIRQHEIVLKVAYPQADSNLRNIVTEQLVALIDCFLDGYVSQLKSVDKSSNRERYDNLEMEYLQKRSDLLSPLLSLGQYLWAASLAEKYCDFDILVQMCEQTDNQSRLQRYMTQFADQNFSDFLFRWYLEKGKRGKLLSQPISQHGQLANFLQAHEHLSWLHEINSQELEKAHATLLGLANMETRYFAKKKTLLGLSKLAALASDFSEDMLQEKIEEMAEQERFLLHQETLPEQLLAEKQLNLSAMPVLTAPQLIGLYICEENRRANEYDFKKALDLLEYIDEEEDININDLKLEILCKALQRDNWSSSDGKDDPIEVSKDSIFVKILQKLLKDGIQLSEYLPEVKDLLQADQLGSLKSNPYFEFVLKANYEYYVQGQI
For the molecule B1, the binding entry in experiment [1] and in experiment [2] was “binds” throughout.
